No constants are given. Whether binding was seen depends on the method and setting. In cells and extracts the contact can be indirect. Here binding means that the protein was enriched with, or labelled near, the bait; the list need not be complete. Where a sequence is shown, tags or fusion partners need not be part of it.
Molecular target: T1, Flag-tagged full-length human SDCCAG8 (human) (UniProt Q86SQ7)
T1 sequence: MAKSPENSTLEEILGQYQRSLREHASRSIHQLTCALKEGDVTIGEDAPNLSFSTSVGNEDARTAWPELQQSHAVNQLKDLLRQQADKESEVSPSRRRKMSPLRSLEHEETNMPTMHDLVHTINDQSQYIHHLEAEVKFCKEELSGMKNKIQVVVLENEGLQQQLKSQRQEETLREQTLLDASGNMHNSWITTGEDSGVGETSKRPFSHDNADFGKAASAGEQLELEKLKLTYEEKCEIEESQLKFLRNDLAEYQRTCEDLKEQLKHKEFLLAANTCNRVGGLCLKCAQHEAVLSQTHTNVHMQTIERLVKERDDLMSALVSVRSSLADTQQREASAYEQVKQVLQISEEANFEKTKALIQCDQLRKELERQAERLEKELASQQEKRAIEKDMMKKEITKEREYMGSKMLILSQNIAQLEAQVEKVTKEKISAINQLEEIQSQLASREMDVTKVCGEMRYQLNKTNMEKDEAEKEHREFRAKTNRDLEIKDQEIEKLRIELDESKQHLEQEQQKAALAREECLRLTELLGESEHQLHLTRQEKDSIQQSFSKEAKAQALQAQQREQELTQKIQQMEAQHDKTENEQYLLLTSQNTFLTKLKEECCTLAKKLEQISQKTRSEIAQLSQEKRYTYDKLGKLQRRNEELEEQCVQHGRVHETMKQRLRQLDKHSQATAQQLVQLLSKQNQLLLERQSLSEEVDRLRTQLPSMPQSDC
Test: affinity purification with mass spectrometry; anti-Flag magnetic beads on lysates of HEK293T cells expressing Flag-hSDCCAG8-FL or Flag-hSDCCAG8-Mut; lysis buffer 0.2% Triton-X100, 0.05 mmol/L DTT, protease inhibitors; overnight at 4 °C; 5 washes with TBS; eluates analysed by MS (peptide confidence score > 10, ≥2 unique peptides)

Sequences of proteins named here, by UniProt entry; tags and fusion partners are left off.
UniProt O00139: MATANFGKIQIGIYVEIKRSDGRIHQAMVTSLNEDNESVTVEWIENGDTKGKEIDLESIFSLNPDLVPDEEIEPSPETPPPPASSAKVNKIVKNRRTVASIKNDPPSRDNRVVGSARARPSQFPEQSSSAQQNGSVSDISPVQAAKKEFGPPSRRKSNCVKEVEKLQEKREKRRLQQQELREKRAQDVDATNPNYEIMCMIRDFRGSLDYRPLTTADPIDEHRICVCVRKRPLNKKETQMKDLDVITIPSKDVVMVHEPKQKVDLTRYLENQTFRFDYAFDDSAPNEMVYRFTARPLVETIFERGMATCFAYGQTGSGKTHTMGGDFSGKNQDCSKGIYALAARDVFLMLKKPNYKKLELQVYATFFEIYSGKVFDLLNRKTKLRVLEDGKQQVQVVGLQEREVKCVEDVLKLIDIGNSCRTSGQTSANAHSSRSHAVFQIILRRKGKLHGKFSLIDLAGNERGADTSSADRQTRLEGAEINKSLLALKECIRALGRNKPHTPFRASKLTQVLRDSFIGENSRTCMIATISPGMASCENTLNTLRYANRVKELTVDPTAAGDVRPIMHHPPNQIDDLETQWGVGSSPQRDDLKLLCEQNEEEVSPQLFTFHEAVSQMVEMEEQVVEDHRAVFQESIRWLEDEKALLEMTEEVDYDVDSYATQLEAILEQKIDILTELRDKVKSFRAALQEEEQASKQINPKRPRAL
UniProt Q15154: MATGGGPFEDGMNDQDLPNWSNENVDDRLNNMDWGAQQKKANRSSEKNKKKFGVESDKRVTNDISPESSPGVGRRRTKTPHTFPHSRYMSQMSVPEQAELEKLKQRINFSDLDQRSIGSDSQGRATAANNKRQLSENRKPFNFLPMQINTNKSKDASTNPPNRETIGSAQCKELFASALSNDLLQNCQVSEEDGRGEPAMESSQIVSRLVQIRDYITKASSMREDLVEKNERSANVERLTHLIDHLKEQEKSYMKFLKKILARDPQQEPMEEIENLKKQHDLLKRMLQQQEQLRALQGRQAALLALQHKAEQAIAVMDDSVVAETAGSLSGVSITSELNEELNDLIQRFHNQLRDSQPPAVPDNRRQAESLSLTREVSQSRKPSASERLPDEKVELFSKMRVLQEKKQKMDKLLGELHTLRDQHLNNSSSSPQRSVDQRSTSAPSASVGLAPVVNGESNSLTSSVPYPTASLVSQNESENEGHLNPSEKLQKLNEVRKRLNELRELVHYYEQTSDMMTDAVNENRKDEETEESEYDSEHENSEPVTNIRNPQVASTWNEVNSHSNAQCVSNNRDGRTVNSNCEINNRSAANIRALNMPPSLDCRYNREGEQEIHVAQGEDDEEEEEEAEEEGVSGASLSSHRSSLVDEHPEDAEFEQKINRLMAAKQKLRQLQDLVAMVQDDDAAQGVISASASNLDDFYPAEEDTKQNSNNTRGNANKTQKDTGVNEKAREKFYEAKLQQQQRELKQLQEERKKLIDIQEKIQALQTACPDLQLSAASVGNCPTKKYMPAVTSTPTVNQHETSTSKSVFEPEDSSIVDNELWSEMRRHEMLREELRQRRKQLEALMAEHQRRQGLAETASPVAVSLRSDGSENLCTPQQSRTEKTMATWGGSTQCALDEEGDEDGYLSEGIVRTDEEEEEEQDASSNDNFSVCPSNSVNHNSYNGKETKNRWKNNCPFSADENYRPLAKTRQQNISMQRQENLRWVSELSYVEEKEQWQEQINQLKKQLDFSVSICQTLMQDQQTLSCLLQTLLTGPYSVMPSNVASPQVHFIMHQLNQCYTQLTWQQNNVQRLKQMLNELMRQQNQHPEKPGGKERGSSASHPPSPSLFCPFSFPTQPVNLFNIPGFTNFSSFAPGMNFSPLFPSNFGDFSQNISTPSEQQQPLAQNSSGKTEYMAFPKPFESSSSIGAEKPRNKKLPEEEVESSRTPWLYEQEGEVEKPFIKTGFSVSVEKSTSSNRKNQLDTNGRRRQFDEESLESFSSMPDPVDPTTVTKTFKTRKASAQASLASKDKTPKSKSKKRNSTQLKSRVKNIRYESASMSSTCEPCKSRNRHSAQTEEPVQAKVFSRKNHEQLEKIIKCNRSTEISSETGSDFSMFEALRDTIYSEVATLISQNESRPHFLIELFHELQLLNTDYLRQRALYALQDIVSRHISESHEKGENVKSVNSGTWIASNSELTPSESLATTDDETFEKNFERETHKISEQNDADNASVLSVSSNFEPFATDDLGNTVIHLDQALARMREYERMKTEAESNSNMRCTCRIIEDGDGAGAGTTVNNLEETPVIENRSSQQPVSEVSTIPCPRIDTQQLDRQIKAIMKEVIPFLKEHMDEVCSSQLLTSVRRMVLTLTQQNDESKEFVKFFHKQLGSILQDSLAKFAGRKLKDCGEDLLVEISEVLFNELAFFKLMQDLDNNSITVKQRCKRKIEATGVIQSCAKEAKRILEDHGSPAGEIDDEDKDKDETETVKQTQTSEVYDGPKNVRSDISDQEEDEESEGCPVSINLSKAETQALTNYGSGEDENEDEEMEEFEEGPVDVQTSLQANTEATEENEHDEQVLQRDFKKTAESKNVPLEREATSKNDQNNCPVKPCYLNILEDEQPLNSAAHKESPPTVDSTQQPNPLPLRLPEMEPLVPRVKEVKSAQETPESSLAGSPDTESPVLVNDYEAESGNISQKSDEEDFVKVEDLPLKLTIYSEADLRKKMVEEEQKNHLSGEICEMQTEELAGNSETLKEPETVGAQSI

| binding | Substance |
| --- | --- |
| binds | KIF2a, endogenous in HEK293T cells (from UniProt O00139 1-706) |
| binds | pericentriolar material 1 (PCM1), endogenous in HEK293T cells (from UniProt Q15154 1-2024) |

— paper PMC12346347
